Measurements: patent publication US20250163138A1 (Alexion, published 2025)
Substitutions are numbered along the chain they refer to. Names and notes keep the numbering of the source. These are yes or no findings as the source states them, for the method shown. Some results given as binding are weak or reduced against the parent protein; the word gives no strength.

Amino acid sequences for entries named in this document (tags omitted). Residues count along the entry.
UniProt P01031, residues 19-1676: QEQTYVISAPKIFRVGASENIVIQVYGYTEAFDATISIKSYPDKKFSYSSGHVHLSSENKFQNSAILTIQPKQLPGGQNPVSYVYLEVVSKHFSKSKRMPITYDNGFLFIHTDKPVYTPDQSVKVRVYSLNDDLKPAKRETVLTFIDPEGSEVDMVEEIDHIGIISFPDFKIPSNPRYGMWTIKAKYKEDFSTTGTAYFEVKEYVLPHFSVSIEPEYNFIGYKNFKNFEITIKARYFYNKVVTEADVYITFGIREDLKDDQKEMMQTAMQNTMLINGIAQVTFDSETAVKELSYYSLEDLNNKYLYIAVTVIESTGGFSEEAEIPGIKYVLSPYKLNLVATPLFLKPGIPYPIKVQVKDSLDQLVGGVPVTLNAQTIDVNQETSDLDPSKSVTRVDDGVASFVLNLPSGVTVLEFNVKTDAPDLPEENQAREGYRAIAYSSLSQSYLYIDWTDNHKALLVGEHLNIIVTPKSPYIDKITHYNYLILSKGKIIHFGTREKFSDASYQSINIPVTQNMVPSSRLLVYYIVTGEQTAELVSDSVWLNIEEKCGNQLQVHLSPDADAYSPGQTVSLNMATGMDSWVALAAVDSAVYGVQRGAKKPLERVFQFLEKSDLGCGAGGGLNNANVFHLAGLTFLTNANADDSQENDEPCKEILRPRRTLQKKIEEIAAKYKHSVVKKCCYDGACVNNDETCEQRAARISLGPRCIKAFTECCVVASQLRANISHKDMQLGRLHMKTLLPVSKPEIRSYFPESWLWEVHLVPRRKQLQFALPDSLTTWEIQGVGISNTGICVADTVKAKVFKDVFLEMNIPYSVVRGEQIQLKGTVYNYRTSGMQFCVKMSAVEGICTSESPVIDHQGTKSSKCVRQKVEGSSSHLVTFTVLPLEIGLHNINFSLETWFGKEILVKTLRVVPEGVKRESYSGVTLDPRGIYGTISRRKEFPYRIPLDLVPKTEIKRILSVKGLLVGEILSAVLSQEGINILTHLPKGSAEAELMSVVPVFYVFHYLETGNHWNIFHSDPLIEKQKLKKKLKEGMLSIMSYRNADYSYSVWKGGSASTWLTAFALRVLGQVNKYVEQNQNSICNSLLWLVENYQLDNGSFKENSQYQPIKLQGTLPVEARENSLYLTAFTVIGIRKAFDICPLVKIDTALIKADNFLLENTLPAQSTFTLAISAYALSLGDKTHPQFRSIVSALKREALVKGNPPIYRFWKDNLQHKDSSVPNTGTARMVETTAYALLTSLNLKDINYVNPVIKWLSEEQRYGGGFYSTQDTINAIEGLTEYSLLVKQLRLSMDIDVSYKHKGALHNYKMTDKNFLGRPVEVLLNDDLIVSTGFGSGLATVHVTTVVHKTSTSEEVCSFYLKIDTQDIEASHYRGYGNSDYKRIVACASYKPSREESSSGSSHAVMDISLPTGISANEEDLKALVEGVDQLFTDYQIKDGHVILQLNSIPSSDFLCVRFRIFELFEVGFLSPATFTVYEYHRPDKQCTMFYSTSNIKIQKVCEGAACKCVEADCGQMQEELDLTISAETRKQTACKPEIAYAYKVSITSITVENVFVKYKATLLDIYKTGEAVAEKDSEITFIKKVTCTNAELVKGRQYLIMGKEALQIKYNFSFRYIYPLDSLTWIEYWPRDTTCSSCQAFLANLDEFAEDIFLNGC
UniProt P02768, residues 25-609: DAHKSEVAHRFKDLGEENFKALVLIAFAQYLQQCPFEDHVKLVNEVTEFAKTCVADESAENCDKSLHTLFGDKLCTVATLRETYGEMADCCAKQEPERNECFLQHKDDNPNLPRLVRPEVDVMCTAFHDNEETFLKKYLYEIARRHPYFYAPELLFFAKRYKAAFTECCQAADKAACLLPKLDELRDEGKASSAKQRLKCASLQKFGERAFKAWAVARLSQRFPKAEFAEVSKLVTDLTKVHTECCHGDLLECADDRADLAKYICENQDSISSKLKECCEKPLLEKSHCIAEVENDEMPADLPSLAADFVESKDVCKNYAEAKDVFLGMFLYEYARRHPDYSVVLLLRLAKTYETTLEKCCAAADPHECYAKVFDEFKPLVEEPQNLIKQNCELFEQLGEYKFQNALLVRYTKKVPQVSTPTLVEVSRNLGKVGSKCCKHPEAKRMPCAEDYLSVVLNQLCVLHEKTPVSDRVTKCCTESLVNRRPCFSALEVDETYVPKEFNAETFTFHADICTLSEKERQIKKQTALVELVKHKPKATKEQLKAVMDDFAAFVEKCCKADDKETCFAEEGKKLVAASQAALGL

Experiments:
[1] = molecular target: T1, human complement protein C5 (human, UniProt P01031 19-1676); test: sandwich: biotin-hC5 on CAP chip, fusion, then albumin; pH 7.4
T1 construct: Native C5 is a two-chain protein made from one precursor; also called hC5; human C5

human serum albumin [2] = molecular target: T2, human serum albumin (human, UniProt P02768 25-609); test: as above
T2 construct: also called HSA; human albumin

[3] = molecular target: T1, human complement protein C5; test: SPR (Biacore 3000), biotin-hC5 on CAP chip, pH 7.4
human serum albumin [4] = molecular target: T2, human serum albumin; test: SPR (Biacore 3000), biotin-hC5 on CAP chip, pH 7.4
[5] = molecular target: cynomolgus monkey (cyno) complement protein C5 (cynomolgus monkey); test: BLI, VHH-His on anti-penta-His tips, 50 nM C5
[6] = molecular target: human complement protein C5 (human) (UniProt P01031); test: BLI, VHH-His on anti-penta-His tips, 50 nM C5
[7] = molecular target: human complement protein C5 (human) (UniProt P01031); test: sandwich: biotin-hC5 on CAP chip, fusion, then albumin; pH 7.4
[8] = molecular target: human complement protein C5 (human) (UniProt P01031); test: SPR (Biacore 3000), biotin-hC5 on CAP chip, pH 7.4

Measured: binding

B1: TPP-3232 (bispecific antibody)
chain: EVQLVESGGGLVKPGGSLRLSCAASGRPVSNYAAAWFRQAPGKEREFVSAINWQKTATYADSVKGRFTISRDNAKNSLYLQMNSLRAEDTAVYYCAAVFRVVAPKTQYDYDYWGQGTLVTVSSGGGGGGEVQLVESGGGLVQPGGSLRLSCAASGRAHSDYAMAWFRQAPGQEREFVAGIGWSGGDTLYADSVRGRFTNSRDNSKNTLYLQMNSLRAEDTAVYYCAARQGQYIYSSMRSDSYDYWGQGTLVTVSS
binds: [1] | human serum albumin [2] | [3] | human serum albumin [4]

B2: LCP0123 (VHH)
VHH: EVQLVESGGGLVQAGGSLTLSCAMSGGTRPFEDYVMAWFRQATGKEREFVATITWMGETTYYKDSVNGRFAISRDNAENTVALQMNSLEPEDTAVYFCAAHSRSSFSTSGGRYNPRPTEYDYWGQGTQVTVSS
notes: llama anti-C5 VHH, tested as VHH-His fusion; not shown: His-tag
binds: [5] | [6]

B3: LCP0296 (VHH)
VHH: EVQLVESGGGVVQAGDSLTLTCTAPVGTISDYGMGWFRQAPGKEREFVASISWGGMWTDYADSVKGRFTISRDNDKNAVYLRMNSLNAEDTAVYYCGRGRMYRGIGNSLAQPKSYGYWGQGTQVTVSS
notes: as for B2
binds: [5] | [6]

B4: LCP0115 (VHH)
VHH: EVQLVESGGGLVQAGGSLRLSCAASGRTFSGILSPYAVGWFRQAPGKGREFVSTITSGGSAIYTDSVKGRFTLSRDNAKDTVYLQMNSLKPEDTAVYYCAVRTRRYGSNLGEVPQENEYGYWGQGTQVTVSS
notes: as for B2
binds: [5] | [6]

B5: LCP0302 (VHH)
VHH: EVQLVESGGGLVQAGGSLRLSCAASGRTFSGILSAYAVGWFRQAPGKEREFVSTITSGGSTLSADSVKGRFTLSRDNAKDTVYLQMNSLKPEDTAVYYCAVRTWPYGSNRGEVPTENEYGHWGQGTQVTVSS
notes: as for B2
binds: [5] | [6]

B6: LCP0146 (VHH)
VHH: EVQLVESGGGLVQAGGSLRLSCAASGRAFSDYAMAWFRQAPGKEREFVAGIGWSGGDTLYADSVRGRFTNSKDNAKNRMSLQMNSLKPEDTAVYYCAARQGQYIYSSMRSDSYDYWGQGTQVTVSS
notes: as for B2
binds: [5] | [6]

B7: CRL0500 (bispecific antibody)
chain: EVQLVESGGGLVKPGGSLRLSCAASGRPVSNYAAAWFRQAPGKEREFVSAINWQKTATYADSVKGRFTISRDNAKNSLYLQMNSLRAEDTAVYYCAAVFRVVAPKTQYDYDYWGQGTLVTVSSGGGGSGGGGSGGGGSEVQLVESGGGLVQPGGSLRLSCAASGRAHSDYAMAWFRQAPGQEREFVAGIGWSGGDTLYADSVRGRFTNSRDNSKNTLYLQMNSLRAEDTAVYYCAARQGQYIYSSMRSDSYDYWGQGTLVTVSS
notes: anti-albumin VHH / (G4S)3 / anti-C5 VHH fusion, purified by Protein A; also called CRL0500 (HSA/C5)
binds: [7] | human serum albumin [2] | [8] | human serum albumin [4]

B8: LCP0143 (VHH)
VHH: EVQLVESGGGLVQAGGSLRLSCAAPEMGATINVMAWYRQAPGKQRELVARLPLDNNIDYGDFAKGRFTISRDITRNTVYLQMNNLKPDDTAVYYCNVLLSRQINGAYVHWGQGTQVTVSS
notes: as for B2
binds: [5] | [6]

B9: TPP-3233 (bispecific antibody)
chain: EVQLVESGGGLVKPGGSLRLSCAASGRPVSNYAAAWFRQAPGKEREFVSAINWQKTATYADSVKGRFTISRDNAKNSLYLQMNSLRAEDTAVYYCAAVFRVVAPKTQYDYDYWGQGTLVTVSSGGGGGGGGGGGGEVQLVESGGGLVQPGGSLRLSCAASGRAHSDYAMAWFRQAPGQEREFVAGIGWSGGDTLYADSVRGRFTNSRDNSKNTLYLQMNSLRAEDTAVYYCAARQGQYIYSSMRSDSYDYWGQGTLVTVSS
binds: [1] | human serum albumin [2] | [3] | human serum albumin [4]

B10: TPP-3234 (bispecific antibody)
chain: EVQLVESGGGLVKPGGSLRLSCAASGRPVSNYAAAWFRQAPGKEREFVSAINWQKTATYADSVKGRFTISRDNAKNSLYLQMNSLRAEDTAVYYCAAVFRVVAPKTQYDYDYWGQGTLVTVSSAPELPGGPEVQLVESGGGLVQPGGSLRLSCAASGRAHSDYAMAWFRQAPGQEREFVAGIGWSGGDTLYADSVRGRFTNSRDNSKNTLYLQMNSLRAEDTAVYYCAARQGQYIYSSMRSDSYDYWGQGTLVTVSS
binds: [1] | human serum albumin [2] | [3] | human serum albumin [4]

B11: TPP-3235 (bispecific antibody)
chain: B10 chain with A124S, P125E, E126P, L127Q, G129Q, G130P, P131G
binds: [1] | human serum albumin [2] | [3] | human serum albumin [4]

B12: TPP-3231 (bispecific antibody)
chain: EVQLVESGGGLVKPGGSLRLSCAASGRPVSNYAAAWFRQAPGKEREFVSAINWQKTATYADSVKGRFTISRDNAKNSLYLQMNSLRAEDTAVYYCAAVFRVVAPKTQYDYDYWGQGTLVTVSSPNLLGGPEVQLVESGGGLVQPGGSLRLSCAASGRAHSDYAMAWFRQAPGQEREFVAGIGWSGGDTLYADSVRGRFTNSRDNSKNTLYLQMNSLRAEDTAVYYCAARQGQYIYSSMRSDSYDYWGQGTLVTVSS
binds: [1] | human serum albumin [2] | [3] | human serum albumin [4]

B13: LCP0095 (VHH)
VHH: EVQLVESGGGLVQAGGSLRLSCTASGRTISTTVMAWFRQAPGKEREFVAADHWGDAGTVYADSVKGRFTISRDNAKNTVYLQMNYLKPEDTSVYYCAARPPTYVGTSRDSRAYDYWGQGTQVTVSS
notes: as for B2
binds: [5] | [6]

B14: TPP-3229 (bispecific antibody)
chain: EVQLVESGGGLVKPGGSLRLSCAASGRPVSNYAAAWFRQAPGKEREFVSAINWQKTATYADSVKGRFTISRDNAKNSLYLQMNSLRAEDTAVYYCAAVFRVVAPKTQYDYDYWGQGTLVTVSSGGGGGGGGPEVQLVESGGGLVQPGGSLRLSCAASGRAHSDYAMAWFRQAPGQEREFVAGIGWSGGDTLYADSVRGRFTNSRDNSKNTLYLQMNSLRAEDTAVYYCAARQGQYIYSSMRSDSYDYWGQGTLVTVSS
binds: [1] | human serum albumin [2] | [3] | human serum albumin [4]

B15: TPP-3230 (bispecific antibody)
chain: B14 chain with G124P, G125A, G126P, G127N, G128L, G129L
binds: [1] | human serum albumin [2] | [3] | human serum albumin [4]

B16: LCP0136 (VHH)
VHH: EVQLVESGGGLVQPGESLRLSCAISGFAFTDVGMSWVRQAPGKGLEWVSSISSGSSITTYSDSVKGRFTISRDNARNTLFLQMNSLKPEDTAVYYCGRYYCTGLGCHPRRDSALWGQGTQVTVSS
notes: as for B2
binds: [5] | [6]
